Data on three substances can be found in US12433830B2 (S.I.S. SHULOV INNOVATIVE SCIENCE LTD., priority 2019, dated 2025).

The nature of data set [1]: general procedure: Fmoc solid-phase peptide synthesis; chlorotrityl chloride resin (CTC); HBTU/HOBT, DIPEA. The conditions noted are these: purification step, sodium salt.
Data set [2] in a line: general procedure: Fmoc solid-phase peptide synthesis; CTC; HBTU/HOBT, DIPEA. The conditions noted are these: whole synthesis, scale of the general procedure CTC resin 125 gr, sodium salt for ZEP3Na and ZEP4Na.

For some assays here: Strings that start with PEPTIDE1 are HELM notation: dots part the residues, brackets hold end groups and non-standard residues. [ ]: non-standard residue; d: D form. The star is where a group is joined. pGlu = O=C1CC[C@@H](C(=O)O)N1; Octanoyl = CCCCCCCC(=O)*

Turning to PEPTIDE1{[pGlu].N.W.T}$$$$V2.0, in data set [1], the “final HPLC purity” value is given as 97.5% and the step yield came out at 80%.
Take “[pGlu]NWK(Octanoyl)-OH (SMILES CCCCCCCC(=O)NCCCC[C@H](NC(=O)[C@H](Cc1c[nH]c2ccccc12)NC(=O)[C@H](CC(N)=O)NC(=O)[C@@H]1CCC(=O)N1)C(=O)O)”: in data set [1], the “final HPLC purity” value was determined as 99.7% and the step yield is reported as 71%.
For [pGlu]NWT-OH, in data set [2], the “final HPLC purity” value was 97.3%.
